Results as given in patent US12060330B2, “Therapeutic indazoles” (priority 2017, dated 2024).
Entries after “also recorded” stand apart in the source; their conditions may differ. Some results were stated once for a whole list of compounds, not compound by compound. For at least one compound, name, drawing or mass did not settle the structure.

What follows are compounds tested on M. tuberculosis. Settings: SAR relative to DG167.
Assay type: cell-based

SMILES | whole-cell activity (in words)
Cn1ncc2ccc(NS(=O)(=O)C3CCC(C(F)(F)F)CC3)cc21 (stereo not drawn) [Example 26, N-(1-methyl-1H-indazol-6-yl)-4-(trifluoromethyl)cyclohexane-1-sulfonamide] | reduce potency
Cn1ncc2ccc(NS(=O)(=O)N3CCCCC3)cc21 [Example 27, N-(1-methyl-1H-indazol-6-yl)piperidine-1-sulfonamide] | reduce potency
Cn1ncc2ccc(NS(=O)(=O)CC3CCCCC3)cc21 [Example 28, 1-cyclohexyl-N-(1-methyl-1H-indazol-6-yl)methanesulfonamide] | reduce potency
Cc1ccc(S(=O)(=O)Nc2ccc3cnn(C)c3c2)cc1 [Example 19, 4-methyl-N-(1-methyl-1H-indazol-6-yl)benzenesulfonamide] | reduce potency
CCS(=O)(=O)Nc1ccc2cnn(C)c2c1 [Example 8, N-(1-methyl-1H-indazol-6-yl)ethanesulfonamide] | reduce potency
CCCC(C)S(=O)(=O)Nc1ccc2cnn(C)c2c1 (stereo not drawn) [Example 17, N-(1-methyl-1H-indazol-6-yl)pentane-2-sulfonamide] | significant loss of whole-cell efficacy; also recorded: reduce potency
Cn1ncc2ccc(NS(=O)(=O)C3CC3)cc21 [Example 22, N-(1-methyl-1H-indazol-6-yl)cyclopropanesulfonamide] | reduce potency
Cn1ncc2ccc(NS(=O)(=O)Cc3ccccc3)cc21 [Example 20, N-(1-methyl-1H-indazol-6-yl)-1-phenylmethanesulfonamide] | reduce potency
Cn1ncc2ccc(NS(=O)(=O)CCc3ccccc3)cc21 [Example 21, N-(1-methyl-1H-indazol-6-yl)-2-phenylethane-1-sulfonamide] | reduce potency
COCCC(C)CCS(=O)(=O)Nc1ccc2cnn(C)c2c1 (stereo not drawn) [Example 15, 5-methoxy-3-methyl-N-(1-methy-1l-indazol-6-yl)pentane-1-sulfonamide] | significant loss of whole-cell efficacy; also recorded: reduce potency
Cn1ncc2ccc(NS(=O)(=O)C3CCCCC3)cc21 [Example 25, N-(1-methyl-1H-indazol-6-yl)cyclohexanesulfonamide] | reduce potency
Cn1ncc2ccc(NS(=O)(=O)C3CCCC3)cc21 [Example 24, N-(1-methyl-1H-indazol-6-yl)cyclopentanesulfonamide] | reduce potency
Cn1ncc2ccc(NS(C)(=O)=O)cc21 [Example 7, N-(1-methyl-1-indazol-6-yl)methanesulfonamide] | reduce potency
CCCC(CC)S(=O)(=O)Nc1ccc2cnn(C)c2c1 (stereo not drawn) [Example 16, N-(1-methyl-1H-indazol-6-yl)hexane-3-sulfonamide] | significant loss of whole-cell efficacy; also recorded: reduce potency
CC(C)S(=O)(=O)Nc1ccc2cnn(C)c2c1 [Example 10, N-(1-methyl-1H-indazol-6-yl)propane-2-sulfonamide] | reduce potency
CCCS(=O)(=O)Nc1ccc2cnn(C)c2c1 [Example 9, N-(1-methyl-1H-indazol-6-yl)propane-1-sulfonamide] | reduce potency
CC(C)CCCS(=O)(=O)Nc1ccc2cnn(C)c2c1 [Example 18, 4-methyl-N-(1-methyl-1H-indazol-6-yl)pentane-1-sulfonamide] | significant loss of whole-cell efficacy; also recorded: reduce potency
Cn1ncc2ccc(NS(=O)(=O)C3CCC3)cc21 [Example 23, N-(1-methyl-1H-indazol-6-yl)cyclobutanesulfonamide] | reduce potency
